“And” between values parts separate entries of the source, which are not always exact repeats. Identical values can stand only once. Inconclusive means that the source gave no clear call. Such entries were picked first, then a sample of the others. For some of these results: Where the call is inconclusive, the potency comes from a doubtful curve fit. The source holds several records for some structures; these can differ, active in one and inactive in another. The source made the active and inactive calls. Rule for the calls: active = hit-call score of the fitted dose curve at least 0.9, where 1 is the maximum; inconclusive = response in the unintended direction; inactive = score below 0.9.
How the values were obtained:
[1] = biological target: Retinoic acid receptor RXR-alpha (Homo sapiens) (UniProt P19793); experiment: OT_NURR1_NURR1RXRa_0480: Odyssey Thera (OT) 8-hour HEK293T Protein Complementation Assay for Nurr1/retinoid X receptor (RXR) (AID 2283385)
Outline: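 Interaction of Nurr1 with RXRα read as reconstituted reporter fluorescence in a HEK293T fragment-complementation system, 8 h post-treatment; increase over DMSO baseline analysed.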

By UniProt entry, the sequences of proteins in these tests, tags left out. Where a name states a change or a piece, a line headed by the entry shows the natural chain unless it says otherwise.
UniProt P19793: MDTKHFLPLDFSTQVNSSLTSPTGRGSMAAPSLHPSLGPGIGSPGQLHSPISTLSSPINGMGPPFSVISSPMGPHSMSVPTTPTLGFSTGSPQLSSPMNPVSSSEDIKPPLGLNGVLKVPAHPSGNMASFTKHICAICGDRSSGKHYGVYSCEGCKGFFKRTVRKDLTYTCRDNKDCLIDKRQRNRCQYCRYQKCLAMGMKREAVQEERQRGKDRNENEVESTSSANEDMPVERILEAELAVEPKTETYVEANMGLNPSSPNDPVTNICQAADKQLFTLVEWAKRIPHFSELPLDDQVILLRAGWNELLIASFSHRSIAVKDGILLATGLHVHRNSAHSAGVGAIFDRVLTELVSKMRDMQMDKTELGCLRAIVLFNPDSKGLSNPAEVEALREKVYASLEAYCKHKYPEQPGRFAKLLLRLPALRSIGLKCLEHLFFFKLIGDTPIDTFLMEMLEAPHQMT
UniProt P04637, whole entry, looked up: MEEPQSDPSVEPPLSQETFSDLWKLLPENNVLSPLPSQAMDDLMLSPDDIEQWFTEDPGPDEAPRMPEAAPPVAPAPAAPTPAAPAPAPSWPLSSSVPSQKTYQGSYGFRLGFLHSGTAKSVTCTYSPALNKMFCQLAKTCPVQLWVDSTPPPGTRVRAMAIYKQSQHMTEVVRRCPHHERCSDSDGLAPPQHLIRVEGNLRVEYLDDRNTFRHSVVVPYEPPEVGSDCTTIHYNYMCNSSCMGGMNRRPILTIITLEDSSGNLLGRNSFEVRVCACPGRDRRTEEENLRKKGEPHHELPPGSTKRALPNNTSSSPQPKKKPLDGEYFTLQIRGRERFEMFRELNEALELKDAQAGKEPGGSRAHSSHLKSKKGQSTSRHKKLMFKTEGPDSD
UniProt P37231: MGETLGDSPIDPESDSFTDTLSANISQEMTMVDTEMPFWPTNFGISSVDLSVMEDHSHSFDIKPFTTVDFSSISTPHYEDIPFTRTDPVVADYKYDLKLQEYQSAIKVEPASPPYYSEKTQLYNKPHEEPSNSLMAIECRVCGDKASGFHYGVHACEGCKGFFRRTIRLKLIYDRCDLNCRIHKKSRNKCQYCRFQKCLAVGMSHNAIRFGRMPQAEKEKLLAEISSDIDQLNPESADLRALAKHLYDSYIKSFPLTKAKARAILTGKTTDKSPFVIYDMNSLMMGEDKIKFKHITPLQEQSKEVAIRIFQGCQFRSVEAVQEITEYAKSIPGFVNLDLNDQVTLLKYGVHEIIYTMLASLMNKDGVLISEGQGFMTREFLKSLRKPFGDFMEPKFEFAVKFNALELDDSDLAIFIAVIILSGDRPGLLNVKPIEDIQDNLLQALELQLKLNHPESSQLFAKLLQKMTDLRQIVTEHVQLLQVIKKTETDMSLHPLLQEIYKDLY

[2] = biological target: Retinoic acid receptor RXR-alpha (Homo sapiens) (UniProt P19793); experiment: OT_NURR1_NURR1RXRa_1440: Odyssey Thera (OT) 24-hour HEK293T Protein Complementation Assay for Nurr1/retinoid X receptor (RXR) (AID 2283386)
Outline: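 Gain in fluorescence, fitted relative to DMSO, reflects Nurr1–RXRα association in HEK293T cells after 24 h dosing. Bait and prey are each linked to a reporter-protein fragment that reassembles on interaction.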

[3] = ATG_XTT_Cytotoxicity: Cytotoxicity Assessment in the Attagene TRANS-FACTORIAL HepG2 Assay (AID 2283584);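 for AC50: XTT signal for cell number as viability in transfected HepG2 cells; cells exposed to compound for 24 h before reading; active means loss of viability signal versus DMSO baseline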
Outline: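 Transfect HepG2 with GAL4-UAS reporter units, dose compound, incubate 24 h, then measure viable cell number by XTT. Fit concentration response against DMSO baseline.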

[4] = TOX21_p53_BLA_p2_viability: Viability Assessment in the Tox21 HCT-116 p53 Agonism Beta-lactamase Assay, Phase 2 (AID 2283591);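 note: compound exposure lasted 16 h at 37 °C; actives lower the ATP signal meaning cytotoxicity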
Outline: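 Cytotoxicity readout: CellTiter-Glo ATP luminescence, 30 min at room temperature, after the beta-lactamase read. Cells were HCT116 exposed 16 h at 37C to compounds pin-transferred at 217-fold dilution from DMSO stocks.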

[5] = biological target: Cellular tumor antigen p53 (Homo sapiens) (UniProt P04637); experiment: TOX21_p53_BLA_p2_ratio: Tox21 HCT-116 p53 Agonism Beta-lactamase Assay, Ratio, Phase 2 (AID 2283592)
Outline: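 Cleaved-to-uncleaved substrate ratio (460 vs 530 nm) measured in HCT116 cells with an inducible beta-lactamase reporter linked to p53 activity. Compounds incubated 16 h at 37C before 2 h room-temperature CCF4-AM loading.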

[6] = TOX21_p53_BLA_p3_viability: Viability Assessment in the Tox21 HCT-116 p53 Agonism Beta-lactamase Assay, Phase 3 (AID 2283593);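 note: cells exposed to compound for 16 h before reading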
Outline: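 Cellular ATP was quantified by CellTiter-Glo luminescence, read after 30 min at room temperature. Beforehand, HCT116 cells (4000/well) received compound 5 h post-seeding, 217-fold diluted from DMSO, then incubated 16 h at 37C.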

[7] = biological target: Cellular tumor antigen p53 (Homo sapiens) (UniProt P04637); experiment: TOX21_p53_BLA_p3_ratio: Tox21 HCT-116 p53 Agonism Beta-lactamase Assay, Ratio, Phase 3 (AID 2283596)
Outline: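 Cells were seeded at 4000/well, rested 5 h at 37C, then dosed with DMSO compound solutions (217-fold dilution) for 16 h. CCF4-AM substrate was loaded for 2 h at room temperature, and the 460/530 nm emission ratio was fitted for gain of signal versus DMSO.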

[8] = TOX21_p53_BLA_p4_viability: Viability Assessment in the Tox21 HCT-116 p53 Agonism Beta-lactamase Assay, Phase 4 (AID 2283597);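 note: hits lower the luminescence signal meaning cytotoxicity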
Outline: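 Viability is taken as cellular ATP: after 16 h compound exposure of HCT116 cells and a 2 h room-temperature CCF4-AM substrate step, CellTiter-Glo reagent is added and luminescence is measured 30 min later.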

[9] = biological target: Cellular tumor antigen p53 (Homo sapiens) (UniProt P04637); experiment: TOX21_p53_BLA_p5_ratio: Tox21 HCT-116 p53 Agonism Beta-lactamase Assay, Ratio, Phase 5 (AID 2283599)
Outline: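 Beta-lactamase reporter ratio (blue 460 nm over green 530 nm, 405 nm excitation) after 2 h CCF4-AM loading, in HCT-116 cells exposed 16 h at 37 C to compounds pinned at 217-fold dilution. Increases relative to DMSO baseline scored.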

[10] = TOX21_p53_BLA_p5_viability: Viability Assessment in the Tox21 HCT-116 p53 Agonism Beta-lactamase Assay, Phase 5 (AID 2283600)
Outline: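 Viability is taken from cellular ATP content, measured by luciferase luminescence in the same wells after the beta-lactamase ratio read. Cells are seeded at 4000 per well and exposed to DMSO-dissolved compounds, diluted 217-fold, for 16 h.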

[11] = biological target: Cellular tumor antigen p53 (Homo sapiens) (UniProt P04637); experiment: TOX21_p53_BLA_p4_ratio: Tox21 HCT-116 p53 Agonism Beta-lactamase Assay, Ratio, Phase 4 (AID 2283601)
Outline: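 Signal is the blue/green (460nm/530nm) ratio of cleaved versus uncleaved CCF4-AM substrate, read after 2 h substrate loading. Cells were HCT116 carrying the p53-responsive beta-lactamase reporter, dosed 16 h at 37C, 5% CO2; CellTiter-Glo measured in parallel.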

[12] = Tanguay_ZF_120hpf_YSE_legacy: (Legacy) Oregon State University Tanguay Lab 120 Hour Post-fertilization zebrafish Assay for Yolk Sac Edema (AID 2283634);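 note: actives raise the incidence of yolk sac edema above the DMSO baseline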
Outline: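 Readout: presence or absence of yolk sac edema at 120 hpf, fitted upward against DMSO controls. Exposure ran statically from 6 hpf in dechorionated embryos kept at 28C.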

[13] = Tanguay_ZF_120hpf_EYE_legacy: (Legacy) Oregon State University Tanguay Lab 120 Hour Post-fertilization zebrafish Assay for Eye Malformation (AID 2283636);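 note: binary presence or absence of eye malformation scored by brightfield in 120 hpf larvae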
Outline: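 Binary brightfield scoring of eye defects at 120 hpf after static exposure from 6 hpf of single pronase-dechorionated wild-type embryos (28C, 0.64% DMSO). Non-mortality endpoints omitted where embryos died; fit vs DMSO.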

[14] = biological target: Peroxisome proliferator-activated receptor gamma (Homo sapiens) (UniProt P37231); experiment: OT_PPARg_PPARgSRC1_1440: Odyssey Thera (OT) 24-hour Protein-Complementation Assay for Peroxisome Proliferator-activated Receptor Gamma/ SRC-1 Co-activator (AID 2283388);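 note: nuclear to cytoplasmic ratio of reconstituted Venus YFP fluorescence in fixed imaged cells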
Outline: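 Transient HEK293T, YFP fragments 1-158/159-239 (mutant IFP1/IFP2) fused to PPARg/SRC-1; 24 h dosing; fix 4% formaldehyde, Draq5; Opera imaging 488/635 nm; N/C ratio, gain vs DMSO.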

[15] = Tanguay_ZF_120hpf_AXIS_legacy: (Legacy) Oregon State University Tanguay Lab 120 Hour Post-fertilization zebrafish Assay for Body Axis Malformation (AID 2283635);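 for AC50: potency for an increased fraction of larvae scored with body axis malformation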
Outline: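 Static 6–120 hpf chemical exposure of dechorionated wild-type 5D zebrafish, one per well at 28C; morphology endpoint scored binary at 120 hpf relative to DMSO control.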

[16] = Tanguay_ZF_120hpf_SNOU_legacy: (Legacy) Oregon State University Tanguay Lab 120 Hour Post-fertilization zebrafish Assay for Snout Malformation (AID 2283637)
Outline: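 Binary snout-malformation call at 120 hpf in wild-type 5D embryos, chorion removed by pronase, under static exposure from 6 hpf at 28C (0.64% DMSO). Embryos dying by 24 or 120 hpf excluded.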

[17] = LTEA_HepaRG_LDH_cytotoxicity: Cytotoxicity Assessment in the Life Technologies and Expression Analysis (LTEA) Assay (AID 2283563);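 note: LDH activity released into spent culture medium as a marker of cell death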
Outline: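 Human HepaRG hepatic cells are treated with test chemicals for 48 h at up to 100 uM in 0.5% DMSO. Cytotoxicity is scored from medium LDH against the vehicle control.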

SMILES: Cc1ccc(C)c(OCCCC(C)(C)C(=O)O)c1
- AC50 [1]: inconclusive: 50 µM
- AC50 [2]: inconclusive: 9.92 µM

SMILES: NC1CCCCC1
- AC50 [1]: inconclusive: 50 µM
- AC50 [2]: inconclusive: 50 µM

SMILES: O=c1[nH]cc(F)c(=O)[nH]1
- outcome [1]: inactive
- AC50 [2]: inconclusive: 51 µM
- outcome [2]: inactive
- AC50 [4]: active: 1.34 µM and active: 1.39 µM
- AC50 [5]: active: 2.4 µM and active: 1.97 µM and active: 4.59 µM
- AC50 [6]: active: 882 nM and active: 2.38 µM
- outcome [6]: inactive
- AC50 [7]: active: 2.99 µM and active: 2.3 µM and active: 5.29 µM
- AC50 [8]: active: 15.7 µM and active: 9.55 µM
- AC50 [9]: active: 3.72 µM and active: 3.09 µM and active: 4.2 µM
- AC50 [10]: active: 1.68 µM
- outcome [10]: inactive
- AC50 [11]: active: 3.73 µM and active: 4.64 µM and active: 5.42 µM
- AC50 [12]: inconclusive: 123 µM
- outcome [13]: inactive

SMILES: CCCCCCCC/C=C\CCCCCCCC(=O)OCCO
- AC50 [1]: active: 38.4 µM
- AC50 [2]: active: 38.7 µM

SMILES: COCC(C)OCC(C)OCC(C)O (centres undefined)
- outcome [1]: inactive
- AC50 [2]: inconclusive: 50 µM

SMILES: N#CSCSc1nc2ccccc2s1
- AC50 [1]: inconclusive: 50 µM
- AC50 [2]: active: 11.6 µM and inconclusive: 83.9 µM
- AC50 [14]: inconclusive: 30 µM

SMILES: N=C(N)c1ccc(OCCCCCOc2ccc(C(=N)N)cc2)cc1
- AC50 [1]: inconclusive: 43.8 µM
- AC50 [2]: inconclusive: 24.1 µM and inconclusive: 8.68 µM

SMILES: COc1ccc(-c2coc3cc(O)cc(O)c3c2=O)cc1
- AC50 [1]: inconclusive: 50 µM
- AC50 [2]: inconclusive: 86.6 µM
- AC50 [14]: inconclusive: 85.6 µM
- AC50 [4]: active: 68.5 µM
- outcome [4]: inactive
- AC50 [5]: active: 71.6 µM and active: 72 µM
- outcome [9]: inactive

SMILES: NCc1cccc(C2CCN(C(=O)c3ccc(C#Cc4ccccc4F)o3)CC2)c1
- AC50 [1]: inconclusive: 25.2 µM and inconclusive: 25.7 µM
- AC50 [2]: inconclusive: 22.2 µM and inconclusive: 22.7 µM
- AC50 [14]: inconclusive: 22.7 µM
- AC50 [4]: active: 68.9 µM
- AC50 [6]: active: 72.2 µM
- AC50 [7]: active: 86.8 µM
- AC50 [8]: active: 65.6 µM
- AC50 [11]: active: 84.4 µM

SMILES: O=C(Nc1ccc(Cl)cc1)Nc1ccc(Cl)c(Cl)c1
- AC50 [1]: active: 12.5 µM and inconclusive: 216 nM
- AC50 [2]: inconclusive: 1.17 µM
- outcome [2]: inactive
- outcome [3]: inactive
- AC50 [5]: active: 3.12 µM and active: 5.23 µM and active: 3.82 µM
- AC50 [7]: active: 5.76 µM and active: 4.62 µM and active: 6.38 µM
- AC50 [8]: inconclusive: 45.9 µM
- AC50 [9]: active: 6.25 µM and active: 12.1 µM
- AC50 [10]: inconclusive: 25.8 µM
- outcome [10]: inactive
- AC50 [11]: active: 4.01 µM and active: 4.85 µM and active: 6.48 µM
- outcome [15]: inactive
- AC50 [13]: inconclusive: 1.21 µM

SMILES: Cc1nccn1-c1ccc(Sc2cccc(C3(C(N)=O)CCOCC3)c2)cc1
- outcome [1]: inactive
- AC50 [2]: active: 50 µM
- outcome [2]: inactive
- AC50 [15]: inconclusive: 4.55 µM

SMILES: O=C(O)Cc1cc(I)c(Oc2cc(I)c(O)c(I)c2)c(I)c1
- AC50 [1]: active: 11.6 µM
- AC50 [2]: active: 6.55 µM
- AC50 [14]: active: 11.8 µM
- AC50 [4]: active: 24.1 µM
- AC50 [6]: active: 46.1 µM
- AC50 [7]: active: 28.2 µM
- AC50 [8]: active: 30.9 µM
- AC50 [9]: active: 30.6 µM
- AC50 [10]: active: 49.3 µM
- AC50 [11]: active: 33.1 µM
- AC50 [13]: active: 0.0114 µM
- AC50 [16]: active: 0.00601 µM

SMILES: O=C(O)CO
- AC50 [1]: inconclusive: 50 µM
- outcome [2]: inactive
- outcome [14]: inactive

SMILES: Cc1cc(C(=C2C=CC(=Nc3ccc(S(=O)(=O)O)cc3)C=C2)c2ccc(Nc3ccc(S(=O)(=O)O)cc3)cc2)cc(S(=O)(=O)O)c1N
- AC50 [1]: inconclusive: 35 µM
- AC50 [2]: inconclusive: 10.8 µM
- AC50 [3]: inconclusive: 70 µM

SMILES: CN(C)CCCN(C)CCCN(C)C
- outcome [1]: inactive
- AC50 [2]: inconclusive: 50 µM
- outcome [2]: inactive
- AC50 [4]: inconclusive: 46.1 µM
- AC50 [6]: inconclusive: 46.1 µM
- outcome [7]: inactive
- AC50 [8]: inconclusive: 46.1 µM
- AC50 [9]: inconclusive: 46.1 µM

SMILES: CCCCCCCCCCCCCC[P+](CCCC)(CCCC)CCCC
- AC50 [1]: inconclusive: 22 µM
- AC50 [2]: inconclusive: 7.32 µM
- AC50 [3]: active: 8.53 µM

SMILES: CN(C)C(=O)NC1(c2ccccc2)CCN(CCC[C@]2(c3ccc(Cl)c(Cl)c3)CCCN(C(=O)c3ccccc3)C2)CC1
- AC50 [1]: active: 19.3 µM
- AC50 [2]: inconclusive: 12.5 µM
- outcome [2]: inactive
- outcome [4]: inactive
- outcome [6]: inactive
- AC50 [9]: inconclusive: 11.5 µM

SMILES: CN(C)C(=O)C1(N2CCCCC2)CCN(CC[C@@]2(c3ccc(Cl)c(Cl)c3)CN(C(=O)c3ccccc3)CCO2)CC1
- AC50 [1]: inconclusive: 9.38 µM and inconclusive: 24.2 µM
- AC50 [2]: inconclusive: 47.2 µM and inconclusive: 20.6 µM
- AC50 [17]: active: 20 µM
- AC50 [4]: active: 37.8 µM
- AC50 [5]: active: 70.9 µM
- AC50 [6]: active: 70.5 µM
- AC50 [7]: active: 82.3 µM
- AC50 [8]: active: 34 µM
- AC50 [9]: active: 82 µM
- AC50 [10]: active: 74.6 µM
- AC50 [11]: active: 48.5 µM
